# Results deposited as PubChem BioAssay AID686937 (Drosophila RNAi Screening Center, 2013)
# Aim: 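Genes whose loss weakens secretory pathway function in fly cells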 (primary screen)
# Cell system: Drosophila S2 cells expressing secreted horseradish peroxidase
# Knock-down reagent: long dsRNA against Drosophila genes
# Timing: about 5.5 days (5 days dsRNA, then 12 h reporter induction)
# Treatment: reporter expression induced after 5 days of dsRNA, read 12 h later; inducer not stated
# Read-out: 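After 5 days of dsRNA and 12 h of reporter induction, medium peroxidase read by chemiluminescence and scored as per-plate z-score; higher values mean more reporter released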
# Scale: z-score: higher = more reporter secreted into medium
# The deposit covers about 23,000 reagents; shown is an unselected part of those that have a named target and a result. 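Reduced-secretion tags in replicate 1 do not always agree with the z-scores; no criterion for assigning the tags was given.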 A plus sign joins genes that one reagent is predicted to hit. Further read-outs or replicates are left out here. Not given: the amount of reagent.
gene,amplicon,"z-score, replicate 1","z-score, replicate 2"
GCS2alpha,DRSC21036,-1.69,-1.33
CG13251,DRSC11699,0.06,-0.02
CG14668,DRSC12254,0.36,0.08
Rsod,DRSC15424,0.19,-0.33
CG11638,DRSC18167,0.45,0.44
CG11638,DRSC18640,0.34,0.39
Rgk1,DRSC05785,-0.26,0.49
Rgk1,DRSC05786,-0.65,0.14
Rgk1,DRSC05789,0.52,0.35
Rgk1,DRSC07343,-0.95,0.08
Rgk1,DRSC07344,-2.71,-1.88
Crg-1,DRSC22882,-0.64,0.45
CG14322,DRSC14801,0.5,0.36
CG34106,DRSC01578,0.26,0.09
Sgs4,DRSC18715,0.26,0.21
CG4198,DRSC18354,0.42,0.26
CG18545,DRSC15343,0.33,0.56
Def,DRSC07398,0.41,0.3
CG7785,DRSC16311,0.42,0.47
kappaB-Ras + CG30503,DRSC06619,0.33,0.33
kappaB-Ras + CG30503,DRSC07636,0.17,0.15
CG30496,DRSC06805,0.48,0.49
Picot,DRSC07508,0.1,0.55

3 entries from above in another layout.
{"gene":"CG13251","amplicon":"DRSC11699","z-score, replicate 1":0.06,"z-score, replicate 2":-0.02}
{"gene":"CG14668","amplicon":"DRSC12254","z-score, replicate 1":0.36,"z-score, replicate 2":0.08}
{"gene":"Rsod","amplicon":"DRSC15424","z-score, replicate 1":0.19,"z-score, replicate 2":-0.33}

Continued:
gene,amplicon,"z-score, replicate 1","z-score, replicate 2"
osk,DRSC17023,0.23,0.28
Sirup,DRSC03031,0.19,0.18
CG1532,DRSC20516,0.34,0.41
l(2)03659,DRSC07269,0.27,0.31
l(2)03659,DRSC07638,0.37,0.17
LSm1,DRSC04458,0.36,0.56
CG1847,DRSC19810,0.29,0.4
CG31465,DRSC16090,0.23,0.13
CG3652,DRSC00624,0.52,0.56
bnk,DRSC16912,0.38,0.4
NaPi-T,DRSC07476,0.34,0.28
CG42680,DRSC01399,0.18,-0.01
eas,DRSC20329,0.41,0.51
CG16853,DRSC01877,0.08,-0.34
Polr2K,DRSC05535,-4.23,-3.29
yellow-c + CIAPIN1,DRSC01898,0.29,0.42
RhoGAP102A,DRSC17110,0.35,0.15
RhoGAP102A,DRSC17145,0.48,0.48
CG1979,DRSC12495,0.41,-0.09
CG31998,DRSC17137,0.25,0.36
CG31998,DRSC17138,0.3,0.39
Nagk,DRSC15994,0.42,0.46
CG1317,DRSC08305,0.2,0.23
CG13724,DRSC10053,0,-0.06
CG42450,DRSC20022,0.07,0.41
CG42450,DRSC22751,0.05,-0.02
Gpdh2,DRSC04346,0.05,0.18
CG14079,DRSC10083,0.15,0.17
CG12017,DRSC08225,0.56,0.39
Ir7g,DRSC18008,0.35,0.52
CG34168,DRSC01938,-0.39,0.24
hd,DRSC12316,0.43,0.62
Gpa2,DRSC21071,0.08,0.07
